Experimental data taken from PubChem BioAssay AID493014 (National Center for Advancing Translational Sciences (NCATS), 2011).
Some of the results follow. The main result of the screen is listed elsewhere. These columns were measured beside it and carry no call. Most of these compounds were active or inconclusive in the main read-out, so they are no random draw. Potencies come from curve fits of mixed quality, noted in brackets.

Test: qHTS Assay to Find Inhibitors of Chronic Active B-Cell Receptor Signaling
Settings: ABC-DLBCL IkBa-CBG/CBR reporter, luminescence ratio (green luciferase fused to IkBa over red control in TMD8 lymphoma cells), 4 h
Summary of the method: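 TMD8 ABC-DLBCL cells carrying doxycycline-inducible green luciferase fused to IkappaBalpha plus unfused red luciferase were exposed to compounds (up to 46 uM) for 4 hrs at 37C. Activity came from the overlap-corrected green/red luminescence ratio.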

[1] = measured here: CBR red luminescence, cell number

Compound | AC50 [1] | AC50 (measured here: IkBa-CBG green luminescence)
COc1cc2c(cc1NC(=O)c1cccnc1)oc1ccccc12 | 16.4 µM [falling, single point] | –
Cc1ccc(-n2nnc(-c3nccs3)n2)cc1 | 7.94 µM [falling, partial curve] | –
O=C(CNC(=O)c1[nH]cnc1C(=O)N[C@@H](Cc1ccccc1)C(=O)OCc1ccccc1)OCc1ccccc1 | 3.98 µM [falling, single point] | –
O=C(O)C1CCN(C(=O)COc2ccc(Br)cc2)CC1 | 4.47 µM [falling, full curve] | –
CCCOc1ccc(-c2cn3ccccc3n2)cc1[N+](=O)[O-] | 6.51 µM [rising, partial curve] | –
CCCc1cc(C(=O)NCCc2ccccc2)no1 | 14.6 µM [falling, partial curve] | –
Cn1c(/C=C(\C#N)C(N)=S)ccc1-c1ccc(Br)cc1 | 35.5 µM [falling, single point] | –
Cc1cn(C)c(CC(=O)Nc2ccc(F)cc2Cl)c1C(=O)O | 6.31 µM [falling, single point] | –
COc1ccc(NC(=O)NNS(=O)(=O)c2ccc(OC)c(OC)c2)c(OC)c1 | 12.6 µM [rising, partial curve, poor fit] | –
CCOC(=O)Nc1ccc(C(=O)Oc2ccccc2)c(O)c1 | 3.98 µM [rising, partial curve, poor fit] | –
Cc1ccc([N+](=O)[O-])cc1N(CC(=O)Nc1ccc(S(=O)(=O)Nc2cccc(C(F)(F)F)c2)cc1)S(C)(=O)=O | 20.6 µM [falling, partial curve] | –
O=C(CSc1nnc(CNC(=O)C23CC4CC(CC(C4)C2)C3)n1-c1ccccc1)Nc1ccccc1 | 0.206 µM [falling, full curve, poor fit] | –
CN1CCN(Cc2nc3ccccc3c(=O)n2Cc2nc(-c3cccc([N+](=O)[O-])c3)cs2)CC1 | 20 µM [falling, partial curve, poor fit] | –
CC(C)C(C)(C#N)NC(=O)CSc1nc2scc(-c3ccc(F)cc3)c2c(=O)n1Cc1ccccc1 (stereo not drawn) | 16.4 µM [falling, single point] | –
CC(=O)c1cc(CC=C(C)C)c(O)cc1O | 11.2 µM [rising, partial curve] | –
Cn1c(=O)n(C)c2cc(NS(=O)(=O)c3ccccc3)ccc21 | 17.8 µM [rising, partial curve, poor fit] | –
CC(=O)C1=C(c2cccc([N+](=O)[O-])c2)N(C(C)=O)n2c(nnc2-c2ccc(C)cc2)S1 | 0.708 µM [rising, full curve, poor fit] | –
CCn1c(SCC(=O)N2CCCC2)nc2ccccc2c1=O | 2.51 µM [falling, partial curve, poor fit] | –
COCCC(=O)N1CCC(Oc2ccc(C(=O)N3CCCCC3CCO)cc2)CC1 (stereo not drawn) | 35.5 µM [rising, partial curve, poor fit] | –
C[C@H](CO)N1C[C@H](C)[C@@H](CN(C)C(=O)Nc2ccc3c(c2)OCO3)Oc2ccc(NC(=O)CCC(F)(F)F)cc2C1=O | 20.6 µM [rising, single point] | –
COc1ccc(Cl)cc1C(=O)Nc1nc2ccccc2[nH]1 | 0.224 µM [falling, full curve] | –

Compound | AC50 [1] | AC50 (measured here: IkBa-CBG green luminescence)
Cc1ccc(C(=O)COC(=O)c2n[nH]c(=O)c3ccccc23)cc1 | 29.1 µM [rising, single point] | –
CC(C)C(NC(=O)c1ccc2c(c1)OCO2)C(=O)N/N=C/c1cccs1 (stereo not drawn) | 0.92 µM [rising, full curve, poor fit] | –
Cc1occc1C(=O)N/N=C/C=C/c1ccccc1[N+](=O)[O-] | 22.4 µM [falling, partial curve] | –
COc1ccc(C)c2sc(NC(=O)CCS(=O)(=O)c3ccccc3)nc12 | 3.55 µM [falling, partial curve, poor fit] | –
Cc1c(C(=O)N2CCOCC2)sc(NC(=O)Cc2ccccc2)c1C#N | 2 µM [rising, partial curve, poor fit] | –
C[C@@H]1CN([C@@H](C)CO)C(=O)c2cccc(NC(=O)C3CCCCC3)c2O[C@@H]1CN(C)C(=O)NC1CCCCC1 | 25.9 µM [falling, single point] | –
O=C(CNCCCO)Nc1cc(C(F)(F)F)cc(NC(=O)CNCCCO)c1Cl | 7.31 µM [rising, partial curve] | –
COc1ccc(N2CCN(c3nc4ccccc4nc3NS(=O)(=O)c3ccccc3)CC2)cc1 | 9.2 µM [falling, partial curve] | –
Cc1ccc(NC(=O)c2cc(-c3ccccc3)n[nH]2)cc1 | 17.8 µM [falling, partial curve, poor fit] | –
Cc1cc(C)n2nc(C(=O)NNC(=O)c3ccccc3)nc2n1 | 1.58 µM [falling, partial curve, poor fit] | –
COc1ccc2c(c1)c1ncn(CCN3CCCCC3)c(=O)c1n2C | 29.1 µM [falling, single point] | –
CN(Cc1ccc(Cl)s1)C(=O)CCl | 8.91 µM [falling, partial curve] | –
O=C(COC(=O)CCC(=O)c1cccs1)Nc1cccc(F)c1 | 0.731 µM [rising, partial curve, poor fit] | –
CCCCOc1ccc(C(=O)Nc2cccc(C)n2)cc1 | 2.24 µM [falling, full curve] | –
O=C1c2[nH]nc(-c3ccccc3O)c2C(c2cccc(O)c2)N1Cc1ccco1 (stereo not drawn) | 12.6 µM [falling, single point] | –
CC1CC(C)(C)Nc2ccc(N=O)cc21 (stereo not drawn) | 22.4 µM [falling, partial curve, poor fit] | –
COc1ccc(CSc2nc(C)[nH]c2[N+](=O)[O-])cc1[N+](=O)[O-] | 14.1 µM [rising, single point] | –
COc1ccccc1NC(=O)CSc1nnc(-c2ccc(C)cc2)o1 | 15.8 µM [falling, partial curve] | –
CCC(C)(C)NC(=O)C(c1ccc(O)cc1)N(Cc1ccco1)C(=O)CCC(=O)Nc1ccccn1 (stereo not drawn) | 35.5 µM [falling, single point] | –
Cc1c(Br)c(=O)oc2c(Br)c(O)c(O)cc12 | 23.1 µM [falling, single point] | –
Cc1ccc(NC(=O)COC(=O)c2c(-c3ccccc3)noc2C)c(C)c1 | 2.06 µM [rising, partial curve, poor fit] | –

Compound | AC50 [1] | AC50 (measured here: IkBa-CBG green luminescence)
O=C(O)c1cccc(-n2c(O)c(C=C3N=c4ccccc4=N3)sc2=S)c1 | 3.16 µM [falling, full curve] | –
Cc1ccc(S(=O)(=O)NCCC(=O)OCC(=O)N(Cc2ccccc2)C(C)(C)C)cc1C | 0.366 µM [rising, full curve] | –
Nc1c(C(=O)NCc2ccco2)c2nc3ccccc3nc2n1CCc1ccccc1 | – | 29.1 µM [falling, partial curve, poor fit]
COc1ccc(C[C@H]2CN3C(=NC[C@@H]3Cc3ccccc3)N2CCNC(=O)c2ccc(C)c(Br)c2)cc1 | 35.5 µM [falling, single point] | –
CCCCN1C(=O)/C(=C/C=C2/C=Cc3ccccc3N2CC)SC1=S | 35.5 µM [rising, single point] | –
COc1ccc(CCCNC(=O)C2CCC(=O)N(CCCN3CCCC3=O)C2)cc1 (stereo not drawn) | 0.398 µM [falling, full curve] | –
CC(C)(C)c1ccc(OCCC(=O)OCC(=O)Nc2cccnc2Cl)cc1 | 18.4 µM [falling, single point] | –
COc1ccc(-c2cc(-c3ccc(Cl)cc3)n[nH]2)c(O)c1 | 10 µM [falling, partial curve, poor fit] | –
Cc1ccc(S(=O)(=O)Nc2ccc(-c3ccc4nncn4n3)cc2)cc1 | 29.1 µM [rising, partial curve, poor fit] | –
Cc1ccc(O)c(-c2cc3ccccc3[nH]2)c1 | 29.1 µM [rising, single point] | –
CCOc1ccccc1N1CCN(C(=O)c2cc(-c3cccnc3)nc3c(Cl)cccc23)CC1 | 1 µM [rising, full curve, poor fit] | –
COc1ccc(NC(=O)c2c(Nc3ccccc3)sc(C(=O)c3ccc(F)cc3)c2N)cc1 | 29.1 µM [falling, single point] | –
COC(=O)Cn1nnc(-c2cccc(OC)c2)n1 | 25.1 µM [rising, single point] | –
Cc1nn2c3ccccc3n(CC(=O)c3cccs3)c2nc1=O | 35.5 µM [falling, single point] | –
Cc1nc(NCc2ccccc2)c2cc[nH]c2n1 | 4.47 µM [rising, full curve, poor fit] | –
CC(/C=C/c1ccccc1)=N\Nc1nc(C)cc(C)n1 | 29.1 µM [rising, single point] | –
COc1ccc([C@]23Cc4cc(OC)c(OC)cc4C(O2)c2c(c4ccccc4oc2=O)O3)cc1 | 0.891 µM [falling, full curve, poor fit] | –
Cc1ccc2c(c1)NC(=O)c1cccnc1N2 | 5.01 µM [falling, full curve, poor fit] | –
Cc1ccc(NC(=S)C2=C(O)c3ccccc3N(C)S2(=O)=O)cc1 | 20.6 µM [falling, partial curve, poor fit] | –
COc1ccc(OCC(=O)Nc2ccc(C)c(S(=O)(=O)N(C)C)c2)cc1 | 22.4 µM [rising, single point] | –
Cc1cc(-c2ccc(S(=O)(=O)Nc3ccc(Cl)cc3)cc2)on1 | 25.1 µM [falling, single point] | –

In another format: results already given
Cc1ccc(S(=O)(=O)Nc2ccc(-c3ccc4nncn4n3)cc2)cc1
  AC50 [1]: 29.1 µM [rising, partial curve, poor fit]
Cc1nc(NCc2ccccc2)c2cc[nH]c2n1
  AC50 [1]: 4.47 µM [rising, full curve, poor fit]
COc1ccc([C@]23Cc4cc(OC)c(OC)cc4C(O2)c2c(c4ccccc4oc2=O)O3)cc1
  AC50 [1]: 0.891 µM [falling, full curve, poor fit]
